At least one structure is not confirmed: it was looked up by name or label, or the drawing left a doubt.
Tested on: phospho-AKT(Ser473) in H1568 cells transduced with CD74-NRG1
Assay: Immunoblot analysis of phospho-AKT(Ser473) in transduced H1568 cells treated with Afatinib
Type: cell-based
Conditions: 100 nM Afatinib for 12 h and/or 24 h; serum-starved H1568 cells transduced with CD74-NRG1 (controls: empty vector, CD74-NRG1_del)

CN(C)C/C=C/C(=O)Nc1cc2c(Nc3ccc(F)c(Cl)c3)ncnc2cc1O[C@H]1CCOC1 [Afatinib]
phosphorylation of AKT (p-AKT Ser473, Western blot): phosphorylation of AKT

Reference: patent publication US10208354B2, “NRG1 fusion genes in cancer” (Universität zu Köln, priority 2013, dated 2019)
